PubChem BioAssay AID1224828 – NIAID, 2016
The whole screen tested about 17,000 reagents; shown is an unselected part. 762 of all reagents (4.5%) count as active. 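Active calls include both raised and lowered p65 entry, mostly lowered; wells with fewer than 50 cells lack a z-score.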 Raw values vary from plate to plate and are shown uncorrected. A reagent listed more than once was tested more than once; the source does not tell the runs apart.

- Aim: 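Regulators linking TLR4 signalling to p65 nuclear translocation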 (primary screen)
- System: mouse RAW264.7 G9 macrophage reporter cells (GFP-p65, Tnf promoter-mCherry)
- Reagent: siRNA pool against mouse genes, 100 nM
- Duration: 2 days siRNA transfection, then 40 min LPS before fixation
- Treatment: LPS (Salmonella minnesota R595) at 10 ng/ml
- Measured: 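Microscopy ratio of nuclear to perinuclear-ring GFP-p65 signal, scaled to the plate median; gene score is the average of two replicate robust z-scores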
- Direction: p65 translocation robust z-score: higher = more nuclear NF-kappaB p65 after LPS than the plate median; nuclear/cytoplasmic p65 ratio: higher = more nuclear NF-kappaB p65
- Active means: 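Active if robust z is above 3.3 (negative regulators) or below -1.56, the Tlr4 control median (positive regulators); activity score 50 or more; control wells not called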
- Meaning of the calls: active = hit (p65 shift raised or lowered); inactive = no clear change

gene	p65 translocation robust z-score	nuclear/cytoplasmic p65 ratio, rep 1	nuclear/cytoplasmic p65 ratio, rep 2	low cell count flag	call
Tmem132d	1.53	1.78	2.08	enough cells to score	inactive
Pdcd2	-0.23	1.45	1.35	enough cells to score	inactive
Serpinb9	-0.99	1.44	1.38	enough cells to score	inactive
Tmem268	0.24	1.33	1.56	enough cells to score	inactive
Krtap14	-0.5	1.35	1.49	enough cells to score	inactive
Evc2	-0.82	1.33	1.28	enough cells to score	inactive
Il11ra2	0.72	1.45	1.48	enough cells to score	inactive
Hspa13	-0.07	1.49	1.6	enough cells to score	inactive
H2-Oa	0.37	1.57	1.34	enough cells to score	inactive
1700055D18Rik	2.36	1.6	1.83	enough cells to score	inactive
Shroom1		1.56	1.49	fewer than 50 cells per well; well left out of scoring	inactive
Pik3cg	-1.03	1.6	1.19	enough cells to score	inactive
Pik3cg	-0.33	1.5	1.5	enough cells to score	inactive
Ube2o	0.43	1.75	1.61	enough cells to score	inactive
Cd3e	0.16	1.61	1.41	enough cells to score	inactive
Cd3e	-0.65	1.43	1.47	enough cells to score	inactive
Itga2	-0.12	1.51	1.32	enough cells to score	inactive
Lefty2	1.18	1.64	1.5	enough cells to score	inactive
Wdr19	0.16	1.55	1.61	enough cells to score	inactive
Tgfbrap1	1.25	1.64	1.95	enough cells to score	inactive
Sec24d	0.32	1.45	1.29	enough cells to score	inactive
Mei1	-0.61	1.69	1.4	enough cells to score	inactive
Or6c214		1.3	1.03	fewer than 50 cells per well; well left out of scoring	inactive
Ccz1	-1.74	1.2	1.42	enough cells to score	active

2 of these entries, set out differently.
| gene | p65 translocation robust z-score | nuclear/cytoplasmic p65 ratio, rep 1 | nuclear/cytoplasmic p65 ratio, rep 2 | low cell count flag | call |
| --- | --- | --- | --- | --- | --- |
| Evc2 | -0.82 | 1.33 | 1.28 | enough cells to score | inactive |
| Il11ra2 | 0.72 | 1.45 | 1.48 | enough cells to score | inactive |
